Measurements reported in PubChem BioAssay AID652272 (Drosophila RNAi Screening Center, 2013)

- Assay: 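Genome-wide knock-down search for components of Hedgehog signalling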 (primary screen)
- Cells: Drosophila clone 8 (Cl8) cells
- Knock-down reagent: long dsRNA against Drosophila genes
- Detection: 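Firefly light from a Hedgehog-responsive ptc promoter reporter and Renilla reference light, both read on a plate reader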
- Direction: firefly Hh reporter signal: higher = more ptc reporter light; Renilla reference signal: higher = more Renilla control light
- Hit rule: 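Hit when the z-score averaged over two replicates is under -2 or over +3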
- Meaning of the calls: active = hit: reporter lowered or raised; inactive = not a hit
The screen tested about 21,000 reagents; shown is an unselected part of those with a known target gene and a result. Of all reagents, 503 (2.4%) got an active call. 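Raw plate light values, not normalised; calls rest on replicate z-scores that were not deposited; hits include reporter decreases as well as increases.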 The record does not give: the amount of reagent, the time to read-out.

With CG31760 [DRSC02590], how do the results read?
firefly Hh reporter signal, replicate 1: 1.01e5; firefly Hh reporter signal, replicate 2: 43362; Renilla reference signal, replicate 1: 2456; Renilla reference signal, replicate 2: 3253; call: inactive

With CG9919 [DRSC20219], what was measured?
firefly Hh reporter signal, replicate 1: 85260; firefly Hh reporter signal, replicate 2: 2.63e5; Renilla reference signal, replicate 1: 2711; Renilla reference signal, replicate 2: 10240; call: inactive

Which result is listed for eas [DRSC20329]?
firefly Hh reporter signal, replicate 1: 82659; firefly Hh reporter signal, replicate 2: 2.10e5; Renilla reference signal, replicate 1: 2621; Renilla reference signal, replicate 2: 7760; call: inactive

What is on record for CG12025 [DRSC08230]?
firefly Hh reporter signal, replicate 1: 67240; firefly Hh reporter signal, replicate 2: 42529; Renilla reference signal, replicate 1: 2109; Renilla reference signal, replicate 2: 3289; call: inactive

For CG1602 [DRSC06601], what was measured?
firefly Hh reporter signal, replicate 1: 63828; firefly Hh reporter signal, replicate 2: 45155; Renilla reference signal, replicate 1: 1520; Renilla reference signal, replicate 2: 4008; call: inactive

For Cyp6v1 [DRSC20565], what does the deposit list?
firefly Hh reporter signal, replicate 1: 77440; firefly Hh reporter signal, replicate 2: 1.51e5; Renilla reference signal, replicate 1: 1403; Renilla reference signal, replicate 2: 6858; call: inactive

With CG42821 [DRSC13231], what does the deposit list?
firefly Hh reporter signal, replicate 1: 53096; firefly Hh reporter signal, replicate 2: 2.87e5; Renilla reference signal, replicate 1: 10839; Renilla reference signal, replicate 2: 6523; call: inactive

Which result is listed for spd-2 [DRSC09682]?
firefly Hh reporter signal, replicate 1: 69867; firefly Hh reporter signal, replicate 2: 44098; Renilla reference signal, replicate 1: 2728; Renilla reference signal, replicate 2: 1728; call: inactive

For CG11842 [DRSC14400], what does the deposit list?
firefly Hh reporter signal, replicate 1: 1.26e5; firefly Hh reporter signal, replicate 2: 1.41e5; Renilla reference signal, replicate 1: 1200; Renilla reference signal, replicate 2: 3835; call: inactive

For CG13724 [DRSC10053], how do the results read?
firefly Hh reporter signal, replicate 1: 1.31e5; Renilla reference signal, replicate 1: 378; Renilla reference signal, replicate 2: 2088; call: inactive

For CG8414 [DRSC07168], how do the results read?
firefly Hh reporter signal, replicate 1: 74490; firefly Hh reporter signal, replicate 2: 55348; Renilla reference signal, replicate 1: 2295; Renilla reference signal, replicate 2: 3996; call: inactive

For Alp9 [DRSC10486], what was measured?
firefly Hh reporter signal, replicate 1: 88091; firefly Hh reporter signal, replicate 2: 1.12e5; Renilla reference signal, replicate 1: 3904; Renilla reference signal, replicate 2: 4071; call: inactive

What did the screen give for CG2747 [DRSC15450]?
firefly Hh reporter signal, replicate 1: 94801; firefly Hh reporter signal, replicate 2: 98216; Renilla reference signal, replicate 1: 3777; Renilla reference signal, replicate 2: 3144; call: inactive

For CG6357 [DRSC06979], what does the deposit list?
firefly Hh reporter signal, replicate 1: 1.06e5; firefly Hh reporter signal, replicate 2: 77708; Renilla reference signal, replicate 1: 4545; Renilla reference signal, replicate 2: 3031; call: inactive

What did the screen give for CheB53b [DRSC05613]?
firefly Hh reporter signal, replicate 1: 1.36e5; firefly Hh reporter signal, replicate 2: 1.97e5; Renilla reference signal, replicate 1: 3921; Renilla reference signal, replicate 2: 8400; call: inactive

For CG13064 [DRSC09947], what was measured?
firefly Hh reporter signal, replicate 1: 1.60e5; Renilla reference signal, replicate 1: 6417; Renilla reference signal, replicate 2: 4523; call: inactive

How did the screen score CG17118 [DRSC02579]?
firefly Hh reporter signal, replicate 1: 1.20e5; firefly Hh reporter signal, replicate 2: 43044; Renilla reference signal, replicate 1: 3008; Renilla reference signal, replicate 2: 3629; call: inactive

With Wbp2 [DRSC09821], what does the deposit list?
firefly Hh reporter signal, replicate 1: 47184; firefly Hh reporter signal, replicate 2: 52425; Renilla reference signal, replicate 1: 2332; Renilla reference signal, replicate 2: 2208; call: inactive

For Ssk [DRSC10756], how do the results read?
firefly Hh reporter signal, replicate 1: 99674; firefly Hh reporter signal, replicate 2: 1.20e5; Renilla reference signal, replicate 1: 3792; Renilla reference signal, replicate 2: 4761; call: inactive

For Tep1 [DRSC03450], what was measured?
firefly Hh reporter signal, replicate 1: 65075; firefly Hh reporter signal, replicate 2: 50805; Renilla reference signal, replicate 1: 1697; Renilla reference signal, replicate 2: 4659; call: inactive

What did the screen give for CG31058 (retired record) [DRSC15840]?
firefly Hh reporter signal, replicate 1: 71171; firefly Hh reporter signal, replicate 2: 56406; Renilla reference signal, replicate 1: 2224; Renilla reference signal, replicate 2: 1808; call: inactive

A portion from the list above, as a working copy:
CG1602 [DRSC06601] — firefly Hh reporter signal, replicate 1 = 63828; firefly Hh reporter signal, replicate 2 = 45155; Renilla reference signal, replicate 1 = 1520; Renilla reference signal, replicate 2 = 4008; call = inactive
Cyp6v1 [DRSC20565] — firefly Hh reporter signal, replicate 1 = 77440; firefly Hh reporter signal, replicate 2 = 1.51e5; Renilla reference signal, replicate 1 = 1403; Renilla reference signal, replicate 2 = 6858; call = inactive
CG42821 [DRSC13231] — firefly Hh reporter signal, replicate 1 = 53096; firefly Hh reporter signal, replicate 2 = 2.87e5; Renilla reference signal, replicate 1 = 10839; Renilla reference signal, replicate 2 = 6523; call = inactive
spd-2 [DRSC09682] — firefly Hh reporter signal, replicate 1 = 69867; firefly Hh reporter signal, replicate 2 = 44098; Renilla reference signal, replicate 1 = 2728; Renilla reference signal, replicate 2 = 1728; call = inactive
